From publication doi:10.1101/2025.07.01.662498
Construct, isoform or probe ends are uncertain for at least one entry. At least one verdict was read from the data and is not stated in words by the source.

The chains behind the UniProt entries cited, without tags or fusion partners. Where a name states a change or a piece, a line headed by the entry shows the natural chain unless it says otherwise.
UniProt Q9UGN5: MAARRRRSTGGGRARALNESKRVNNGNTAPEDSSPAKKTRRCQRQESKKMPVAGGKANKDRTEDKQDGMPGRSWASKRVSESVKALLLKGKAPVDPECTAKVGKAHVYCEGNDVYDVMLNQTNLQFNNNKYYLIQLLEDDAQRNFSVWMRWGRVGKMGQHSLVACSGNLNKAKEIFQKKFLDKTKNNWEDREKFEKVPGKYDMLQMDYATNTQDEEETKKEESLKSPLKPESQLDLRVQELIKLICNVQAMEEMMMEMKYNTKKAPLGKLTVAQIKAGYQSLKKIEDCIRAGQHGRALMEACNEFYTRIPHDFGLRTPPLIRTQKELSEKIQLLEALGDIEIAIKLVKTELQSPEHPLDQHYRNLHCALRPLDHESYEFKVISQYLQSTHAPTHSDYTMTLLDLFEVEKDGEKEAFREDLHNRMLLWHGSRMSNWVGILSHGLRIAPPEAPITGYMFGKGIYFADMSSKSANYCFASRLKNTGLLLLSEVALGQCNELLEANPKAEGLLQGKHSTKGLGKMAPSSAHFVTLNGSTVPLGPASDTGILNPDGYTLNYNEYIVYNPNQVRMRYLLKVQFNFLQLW

Legend:
[1] = target: PARP2 WT (human) (UniProt Q9UGN5); assay: fluorescence polarization; conditions: 5 uM HPF1, Kd curve only in figure; 5'-phosphate; residues 1-583
[2] = target: PARP2 SA (no ser) (human) (UniProt Q9UGN5); assay: fluorescence polarization; conditions: 5'-phosphate, residues 1-583

Measured: binding result

GGAAGTCTTTTGACTTCCTCGAAGCTTTTGCTTCGA [fluorescein-labelled nicked dumbbell DNA, 5'-phosphate]
binds: [1] | [2]; 5 uM HPF1, Kd curve only in figure | [2]; no HPF1, Kd curve only in figure
